Test results from patent US10105437B2 (BTG International Limited, priority 2004, dated 2018).
End groups of sequences in plain letters are not given here.

Experiment: peptide made by a vendor
Settings: whole synthesis, reverse phase-HPLC, amino acid sequence analysis or mass spectroscopy, scale of the general procedure approximately 0.6 micromole (first library), approximately 0

**Q.** Which results are given for IKDFHVYFRESRDALWKGPG?
**A.** purity (crude or final not stated) (run 1): 50%; purity (crude or final not stated) (run 2): 64% (range: 55-71%)

**Q.** Which “purity (crude or final not stated)” value does the source give for VLQQHNIAHGSSQVLQESTY here?
**A.** 19%
